No constants are given. Whether binding was seen depends on the method and setting. Binding seen in cells or lysates may run through a third protein. Some binding calls cover weakened binding; strength is not graded here.
Biological target: T1, native claudin-5 (rat alveolar epithelial cells) (rat) (UniProt Q9JKD6)
T1 sequence (looked up): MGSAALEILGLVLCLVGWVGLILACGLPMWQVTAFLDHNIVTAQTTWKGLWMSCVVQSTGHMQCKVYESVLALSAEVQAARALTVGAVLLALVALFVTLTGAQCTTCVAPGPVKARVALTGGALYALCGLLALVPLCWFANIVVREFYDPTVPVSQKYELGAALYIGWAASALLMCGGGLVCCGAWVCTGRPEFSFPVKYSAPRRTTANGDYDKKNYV
Assay: co-immunopurification from rat AECs

B1: native claudin-4 (rat alveolar epithelial cells) (protein)
chain: MASMGLQVLGISLAVLGWLGVILSCSLPMWRVTAFIGSNIVTAQTSWEGLWMNCVVQSTGQMQCKMYDSMLALPQDLQAARALMVISIIVGALGMLLSVVGGKCTNCMEDETVKAKVMITAGAVFIVASMLIMVPVSWTAHNVIRDFYNPLVASGQKREMGASLYIGWAASGLLLLGGGLLCCNCPPRRNEKPYSAKYSAARSVPASNYV
In the case of B1, the binding is reported as “binds”.

From US20200331965A1 (EMORY UNIVERSITY, published 2020)
